This assay has as its target EGFP-TEV-sNASP (human) (UniProt P49321). Briefly: co-IP + co-sedimentation; GFP-Trap pull-down of eGFP-sNASP from transiently transfected HEK293-F cells, TEV release, 4–20% glycerol gradient (240,000 × g, 14 hr, 4°C); SDS-PAGE, silver stain and Western blot of fractions.

Results are given in words; binding and its absence hold for the method and conditions named. In cells and extracts the contact can be indirect. Some results given as binding are weak or reduced against the parent protein; the word gives no strength.

B1: UBR7 (protein, UniProt Q8N806 1-425)
chain: MAGAEGAAGRQSELEPVVSLVDVLEEDEELENEACAVLGGSDSEKCSYSQGSVKRQALYACSTCTPEGEEPAGICLACSYECHGSHKLFELYTKRNFRCDCGNSKFKNLECKLLPDKAKVNSGNKYNDNFFGLYCICKRPYPDPEDEIPDEMIQCVVCEDWFHGRHLGAIPPESGDFQEMVCQACMKRCSFLWAYAAQLAVTKISTEDDGLVRNIDGIGDQEVIKPENGEHQDSTLKEDVPEQGKDDVREVKVEQNSEPCAGSSSESDLQTVFKNESLNAESKSGCKLQELKAKQLIKKDTATYWPLNWRSKLCTCQDCMKMYGDLDVLFLTDEYDTVLAYENKGKIAQATDRSDPLMDTLSSMNRVQQVELICEYNDLKTELKDYLKRFADEGTVVKREDIQQFFEEFQSKKRRRVDGMQYYCS
Turning to B1, the binding entry was “binds”.

(Values after article PMC9560165.)
